{"source": "the supplement of paper PMC8166895", "note": "Where a name gives a salt, the structure may show the parent alone. The list shows a part of the results. Most entries show no effect beyond the scatter of the controls.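 Differential scanning fluorimetry gave melting temperatures in a one-replicate pilot screen of a library of approved drugs plus clinical or known-target compounds. Hits increasing melting point at least 2 °C were the strongest stabilizers, while negative shifts signify destabilization.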"}
{"system": "SARS-CoV-2 main protease (Mpro, nsp5)", "assay": "thermal shift ΔTm of Mpro relative to plate average Tm; higher = stronger thermal stabilization of Mpro (binding)", "conditions": "10 µM; protein concentration 1 µM", "units": {"thermal shift ΔTm of Mpro": "°C"}}
{"smiles": "CN(C)CCn1nnnc1SCC1=C(C(=O)O)N2C(=O)[C@@H](NC(=O)Cc3csc(N)n3)[C@H]2SC1", "note": "[Cefotiam hydrochloride]", "thermal shift ΔTm of Mpro": 0.413}
{"smiles": "CN1CCN(c2ccc(Nc3ncc4cc(C#N)c(=O)n(C5CCCC5)c4n3)cc2)CC1", "thermal shift ΔTm of Mpro": 0.0251}
{"smiles": "CCN1C[C@H](C)n2c(c(O)c3c(=O)n(Cc4ccc(F)c(Cl)c4)nc(C(=O)NC)c32)C1=O", "thermal shift ΔTm of Mpro": -0.0128}
{"smiles": "COc1ccc2cc(C(C)C(=O)Oc3ccc(C(N)=S)cc3)ccc2c1", "note": "(stereo not given)", "thermal shift ΔTm of Mpro": -0.17}
{"smiles": "NCC(=O)[O-].NCC(=O)[O-].[Fe+2]", "note": "[Ferrous Bisglycinate]", "thermal shift ΔTm of Mpro": 0.103}
{"smiles": "C1CCc2nnnn2CC1", "note": "[Pentetrazol]", "thermal shift ΔTm of Mpro": -0.0128}
{"smiles": "CC(=O)c1c(C)c2cnc(Nc3ccc(N4CCNCC4)cn3)nc2n(C2CCCC2)c1=O", "note": "[Palbociclib Isethionate]", "thermal shift ΔTm of Mpro": 0.0451}
{"smiles": "CC(=O)c1c(C)c2cnc(Nc3ccc(N4CCNCC4)cn3)nc2n(C2CCCC2)c1=O", "thermal shift ΔTm of Mpro": 0.0779}
{"smiles": "CC(=O)c1c(C)c2cnc(Nc3ccc(N4CCNCC4)cn3)nc2n(C2CCCC2)c1=O", "note": "[Palbociclib]", "thermal shift ΔTm of Mpro": 0.0179}
{"smiles": "CC(=O)c1c(C)c2cnc(Nc3ccc(N4CCNCC4)cn3)nc2n(C2CCCC2)c1=O", "note": "[Palbociclib hydrochloride]", "thermal shift ΔTm of Mpro": 0.0263}
{"smiles": "O.O.O.O=C([O-])[C@H]([O-])[C@@H]([O-])C(=O)[O-].O=C([O-])[C@H]([O-])[C@@H]([O-])C(=O)[O-].[K+].[K+].[Sb+3].[Sb+3]", "note": "[Potassium antimonyl tartrate sesquihydrate]", "thermal shift ΔTm of Mpro": 0.339}
{"smiles": "CC(C)(C)c1ccc(S(=O)(=O)/C=C/C#N)cc1", "thermal shift ΔTm of Mpro": -0.813}
{"smiles": "COc1nccnc1NS(=O)(=O)c1ccc(N)cc1", "note": "[Sulfalen]", "thermal shift ΔTm of Mpro": 0.182}
{"smiles": "CC(N)CCCC(C)(C)O", "note": "(stereo not given) [Heptaminol hydrochloride]", "thermal shift ΔTm of Mpro": 0.145}
{"smiles": "CNC(=O)c1cc(Oc2ccc3nc(N[C@@H]4CCCC[C@H]4O)sc3c2)ccn1", "thermal shift ΔTm of Mpro": 0.0339}
{"smiles": "N#CCC(=O)NN", "note": "[Cyanoacetohydrazide]", "thermal shift ΔTm of Mpro": 0.162}
{"smiles": "CN1CCCN=C1/C=C/c1cccc(O)c1", "note": "[Oxantel Pamoate]", "thermal shift ΔTm of Mpro": 0.266}
{"smiles": "C/C(=C\\c1csc(C)n1)[C@@H]1C[C@@H]2O[C@]2(C)CCC[C@H](C)[C@H](O)[C@@H](C)C(=O)C(C)(C)[C@@H](O)CC(=O)O1", "note": "[Epothilone B (EPO906, Patupilone)]", "thermal shift ΔTm of Mpro": 0.535}
{"smiles": "C[C@@H](O[C@H]1OCCN(Cc2n[nH]c(=O)[nH]2)[C@H]1c1ccc(F)cc1)c1cc(C(F)(F)F)cc(C(F)(F)F)c1", "note": "[Aprepitant]", "thermal shift ΔTm of Mpro": -0.118}
{"smiles": "Oc1cccc(O)c1", "note": "[Resorcine]", "thermal shift ΔTm of Mpro": 0.0758}
{"smiles": "O=[Si]=O", "note": "[Sodium montmorillonite]", "thermal shift ΔTm of Mpro": 0.0403}
{"smiles": "Cc1cn(-c2cc(NC(=O)c3ccc(C)c(Nc4nccc(-c5cccnc5)n4)c3)cc(C(F)(F)F)c2)cn1", "note": "[Nilotinib (AMN-107)]", "thermal shift ΔTm of Mpro": 0.117}
{"smiles": "NC(=O)c1ccc(-c2nc(-c3ccccn3)c(-c3ccc4c(c3)OCO4)[nH]2)cc1", "thermal shift ΔTm of Mpro": 0.105}
{"smiles": "Cc1cc(O)cc(C)c1Cl", "note": "[Chloroxylenol]", "thermal shift ΔTm of Mpro": -0.0392}
{"smiles": "CCCNC(=O)Nc1ccc(Oc2ncnc3cc(OC)c(OC)cc23)cc1Cl", "thermal shift ΔTm of Mpro": -0.155}
{"smiles": "COC(=O)CCC(=O)CN", "note": "[Methyl Aminolevulinate Hydrochloride]", "thermal shift ΔTm of Mpro": 0.309}
{"smiles": "O=S(=O)(O)Oc1ccc(C(c2ccc(OS(=O)(=O)O)cc2)c2ccccn2)cc1", "note": "[Sodium Picosulfate]", "thermal shift ΔTm of Mpro": 0.00696}
{"smiles": "CC=CC1=C(C(=O)O)N2C(=O)[C@@H](NC(=O)[C@H](N)c3ccc(O)cc3)[C@H]2SC1", "note": "[Cefprozil hydrate]", "thermal shift ΔTm of Mpro": 0.21}
{"smiles": "CCN(CC)CCOc1ccc(Nc2ncc3cc(-c4c(Cl)cccc4Cl)c(=O)n(C)c3n2)cc1", "thermal shift ΔTm of Mpro": -0.0339}
{"smiles": "NS(=O)(=O)c1ccc(S(=O)(=O)Nc2cccc3c(Cl)c[nH]c23)cc1", "note": "[Indisulam]", "thermal shift ΔTm of Mpro": 0.00627}
{"smiles": "O=C1c2ccccc2C(=O)C1c1ccc(Br)cc1", "note": "[Bromindione]", "thermal shift ΔTm of Mpro": 0.207}
{"smiles": "CCn1c(-c2nonc2N)nc2c(C#CC(C)(C)O)ncc(OC[C@H]3CCCNC3)c21", "thermal shift ΔTm of Mpro": 0.174}
{"smiles": "CC(=NNC(=S)N1CCC1)c1ccccn1", "thermal shift ΔTm of Mpro": -0.0659}
{"smiles": "Cc1cc2c(s1)Nc1ccccc1N=C2N1CCN(C)CC1", "note": "[Olanzapine]", "thermal shift ΔTm of Mpro": -0.117}
{"smiles": "Cc1cc(C(=O)O)sc1C(N)C(=O)O", "note": "(stereo not given)", "thermal shift ΔTm of Mpro": 0.043}
{"smiles": "CN1C(=O)C(Cc2c[nH]c3ccccc23)NC1=S", "note": "(stereo not given) [Necrostatin-1]", "thermal shift ΔTm of Mpro": 0.016}
{"smiles": "C=CC[C@]1(O)CC[C@H]2[C@@H]3CCC4=CC(=O)CCC4=C3C=C[C@@]21C", "note": "[Altrenogest]", "thermal shift ΔTm of Mpro": 0.0304}
{"smiles": "CCOC(=S)SSC(=S)OCC", "note": "[Dixanthogen]", "thermal shift ΔTm of Mpro": 0.412}
{"smiles": "Cn1cc(/C=C2\\C(=O)Nc3cccnc32)c2ccccc21", "thermal shift ΔTm of Mpro": -0.124}
{"smiles": "C[C@]12CC[C@H](O)C[C@H]1CC[C@@H]1[C@@H]2[C@H](O)C[C@]2(C)[C@@H](c3ccc(=O)oc3)CC[C@]12O", "note": "[Gamabufotalin]", "thermal shift ΔTm of Mpro": -0.0175}
